Among the data in publication PMC6251806 are binding values, retold here.

The chains behind the UniProt entries cited, without tags or fusion partners.
UniProt P22082: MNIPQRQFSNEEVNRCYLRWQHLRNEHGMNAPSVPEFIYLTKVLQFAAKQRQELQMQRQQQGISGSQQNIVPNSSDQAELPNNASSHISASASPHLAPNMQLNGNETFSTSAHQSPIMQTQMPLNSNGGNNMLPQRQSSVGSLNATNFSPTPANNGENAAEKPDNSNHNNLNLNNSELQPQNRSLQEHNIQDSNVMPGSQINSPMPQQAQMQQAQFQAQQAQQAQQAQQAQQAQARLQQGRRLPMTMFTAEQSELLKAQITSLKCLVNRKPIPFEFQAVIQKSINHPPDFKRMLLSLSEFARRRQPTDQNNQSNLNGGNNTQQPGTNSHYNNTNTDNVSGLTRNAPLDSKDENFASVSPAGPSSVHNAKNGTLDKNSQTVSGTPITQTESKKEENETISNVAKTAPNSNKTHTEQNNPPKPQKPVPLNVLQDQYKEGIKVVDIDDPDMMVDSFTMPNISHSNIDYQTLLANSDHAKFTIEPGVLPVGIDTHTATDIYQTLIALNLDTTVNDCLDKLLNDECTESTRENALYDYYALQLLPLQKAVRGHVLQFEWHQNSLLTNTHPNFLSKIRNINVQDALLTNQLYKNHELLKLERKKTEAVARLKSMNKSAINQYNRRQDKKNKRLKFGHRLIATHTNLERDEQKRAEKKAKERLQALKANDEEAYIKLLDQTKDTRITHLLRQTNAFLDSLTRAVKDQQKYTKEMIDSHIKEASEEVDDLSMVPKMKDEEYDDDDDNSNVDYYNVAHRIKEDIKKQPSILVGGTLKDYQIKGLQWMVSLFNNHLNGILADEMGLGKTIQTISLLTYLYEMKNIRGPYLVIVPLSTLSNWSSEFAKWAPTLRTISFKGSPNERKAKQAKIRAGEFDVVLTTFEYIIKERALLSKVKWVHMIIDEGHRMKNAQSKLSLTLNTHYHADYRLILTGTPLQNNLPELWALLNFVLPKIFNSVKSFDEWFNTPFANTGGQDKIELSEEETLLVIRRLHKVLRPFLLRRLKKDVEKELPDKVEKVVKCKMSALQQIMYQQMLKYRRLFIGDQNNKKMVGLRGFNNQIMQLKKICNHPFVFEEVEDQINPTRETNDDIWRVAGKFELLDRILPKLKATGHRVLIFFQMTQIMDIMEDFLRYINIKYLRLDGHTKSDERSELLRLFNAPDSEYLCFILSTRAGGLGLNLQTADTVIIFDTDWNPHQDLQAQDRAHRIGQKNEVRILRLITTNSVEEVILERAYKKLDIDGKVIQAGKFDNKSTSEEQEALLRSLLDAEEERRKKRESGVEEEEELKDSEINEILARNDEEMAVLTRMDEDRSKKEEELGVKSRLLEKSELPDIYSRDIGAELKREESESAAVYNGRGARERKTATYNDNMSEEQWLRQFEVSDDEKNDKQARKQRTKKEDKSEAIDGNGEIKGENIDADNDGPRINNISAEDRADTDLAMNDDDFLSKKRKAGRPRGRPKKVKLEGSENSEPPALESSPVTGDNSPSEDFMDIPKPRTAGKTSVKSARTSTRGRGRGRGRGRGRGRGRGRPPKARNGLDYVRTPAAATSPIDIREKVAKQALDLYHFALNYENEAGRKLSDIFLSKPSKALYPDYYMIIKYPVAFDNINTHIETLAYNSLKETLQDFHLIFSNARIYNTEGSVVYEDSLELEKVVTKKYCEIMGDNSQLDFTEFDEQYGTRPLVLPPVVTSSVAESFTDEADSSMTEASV
UniProt P18480: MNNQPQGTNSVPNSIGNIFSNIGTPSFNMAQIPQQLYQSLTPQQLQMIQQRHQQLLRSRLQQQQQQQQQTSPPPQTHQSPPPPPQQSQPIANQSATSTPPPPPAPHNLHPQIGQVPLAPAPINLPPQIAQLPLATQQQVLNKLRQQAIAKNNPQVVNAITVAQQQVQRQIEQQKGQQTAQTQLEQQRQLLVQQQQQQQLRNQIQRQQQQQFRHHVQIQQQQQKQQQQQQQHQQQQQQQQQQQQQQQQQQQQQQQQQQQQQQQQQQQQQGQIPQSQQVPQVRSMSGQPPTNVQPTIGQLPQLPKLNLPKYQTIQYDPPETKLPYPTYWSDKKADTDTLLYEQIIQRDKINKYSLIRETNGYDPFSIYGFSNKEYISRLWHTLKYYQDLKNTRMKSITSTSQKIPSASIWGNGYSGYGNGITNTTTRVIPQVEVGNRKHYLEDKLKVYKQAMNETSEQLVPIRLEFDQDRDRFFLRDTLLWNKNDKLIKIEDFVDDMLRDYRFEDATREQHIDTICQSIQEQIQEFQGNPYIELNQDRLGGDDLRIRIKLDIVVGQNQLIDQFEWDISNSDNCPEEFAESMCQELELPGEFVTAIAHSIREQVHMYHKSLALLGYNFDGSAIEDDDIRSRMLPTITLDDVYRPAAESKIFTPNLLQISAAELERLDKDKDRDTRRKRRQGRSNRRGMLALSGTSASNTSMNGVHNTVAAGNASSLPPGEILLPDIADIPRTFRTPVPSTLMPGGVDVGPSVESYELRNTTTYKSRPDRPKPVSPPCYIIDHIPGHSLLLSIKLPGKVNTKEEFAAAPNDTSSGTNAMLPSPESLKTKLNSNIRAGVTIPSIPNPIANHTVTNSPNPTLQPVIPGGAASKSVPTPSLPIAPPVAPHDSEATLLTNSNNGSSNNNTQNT
UniProt Q12406: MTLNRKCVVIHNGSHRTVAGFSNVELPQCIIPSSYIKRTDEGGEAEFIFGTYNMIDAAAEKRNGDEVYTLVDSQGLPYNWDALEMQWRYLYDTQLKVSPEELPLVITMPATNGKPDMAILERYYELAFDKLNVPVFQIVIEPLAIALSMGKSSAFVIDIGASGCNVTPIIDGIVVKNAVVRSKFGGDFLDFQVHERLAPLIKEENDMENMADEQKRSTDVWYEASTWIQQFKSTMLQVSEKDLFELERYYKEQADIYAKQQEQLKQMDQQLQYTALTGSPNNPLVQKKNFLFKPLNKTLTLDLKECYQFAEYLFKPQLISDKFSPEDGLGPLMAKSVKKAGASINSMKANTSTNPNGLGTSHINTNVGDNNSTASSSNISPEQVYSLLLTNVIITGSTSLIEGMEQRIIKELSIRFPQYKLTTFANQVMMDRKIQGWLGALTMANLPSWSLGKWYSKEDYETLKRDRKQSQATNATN
UniProt Q05123: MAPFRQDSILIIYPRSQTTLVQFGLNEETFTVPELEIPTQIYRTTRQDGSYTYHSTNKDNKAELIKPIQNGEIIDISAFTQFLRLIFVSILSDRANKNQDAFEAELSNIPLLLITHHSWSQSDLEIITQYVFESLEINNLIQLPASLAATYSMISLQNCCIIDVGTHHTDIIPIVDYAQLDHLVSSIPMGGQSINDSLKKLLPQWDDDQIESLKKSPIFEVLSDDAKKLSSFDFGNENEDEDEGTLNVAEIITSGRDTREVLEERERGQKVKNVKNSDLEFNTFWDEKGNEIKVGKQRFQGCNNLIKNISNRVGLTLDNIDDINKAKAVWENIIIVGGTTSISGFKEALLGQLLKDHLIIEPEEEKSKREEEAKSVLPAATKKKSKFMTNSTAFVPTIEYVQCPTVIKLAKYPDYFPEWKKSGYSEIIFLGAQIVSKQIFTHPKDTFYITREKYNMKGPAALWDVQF

The target in experiment [1] is Snf2 (S. cerevisiae) (UniProt P22082). The experiment in a line: EM reconstruction; endogenous Snf2-Arp7-Arp9 catalytic core obtained from S. cerevisiae; 3D structure fitted with PDB 4I6M and 5HZR.
Experiment [2] shares this target. The experiment in a line: EM reconstruction (negative stain) with 3D difference mapping of subunit deletion mutants; endogenous SWI/SNF affinity purified from S. cerevisiae; intact complex compared with complexes lacking one subunit; crystal structures fitted as rigid bodies; read together with cited CX-MS data.
In another experiment the target is Snf5 (S. cerevisiae) (UniProt P18480). The experiment is described as above.
Experiment [3] addresses Snf2 (S. cerevisiae) (UniProt P22082). The experiment in a line: EM reconstruction; endogenous Snf2-Arp7-Arp9 catalytic core obtained from S. cerevisiae; 3D structure fitted with PDB 4I6M and 5HZR. The source holds these as a separate data set.

Results are given in words; binding and its absence hold for the method and conditions named. Some entries that bind do so weakly or less than the wild type.

On to Arp7 (from UniProt Q12406 1-477), for which, in the experiment with Snf2 (S. cerevisiae) [1], the binding entry is “binds”.

Arp9 (from UniProt Q05123 1-467): the binding result with Snf2 (S. cerevisiae) [1] is listed as “binds”.

As for Snf5 (from UniProt P18480 1-905), the binding result with Snf2 (S. cerevisiae) [2] is on record as “binds”.

B1: Swi1 (protein, UniProt P09547 1-1314)
chain: MDFFNLNNNNNNNNTTTTTTTTNNNNTNNNNTNNNNNPANNTNNNNSTGHSSNTNNNTNNNNTNTGASGVDDFQNFFDPKPFDQNLDSNNNNSNSNNNDNNNSNTVASSTNFTSPTAVVNNAAPANVTGGKAANFIQNQSPQFNSPYDSNNSNTNLNSLSPQAILAKNSIIDSSNLPLQAQQQLYGGNNNNNSTGIANDNVITPHFITNVQSISQNSSSSTPNTNSNSTPNANQQFLPFNNSASNNGNLTSNQLISNYAASNSMDRSSSASNEFVPNTSDNNNNSNNHNMRNNSNNKTSNNNNVTAVPAATPANTNNSTSNANTVFSERAAMFAALQQKQQQRFQALQQQQQQQQNQQQQNQQPQQQQQQQQNPKFLQSQRQQQQRSILQSLNPALQEKISTELNNKQYELFMKSLIENCKKRNMPLQSIPEIGNRKINLFYLYMLVQKFGGADQVTRTQQWSMVAQRLQISDYQQLESIYFRILLPYERHMISQEGIKETQAKRIFLQQFLQELLKKVQQQQQAAALANANNNINSASSAPTPAAPGASVPATAAPGTEAGIVPVSANTPKSLNSNININVNNNNIGQQQVKKPRKQRVKKKTKKELELERKEREDFQKRQQKLLEDQQRQQKLLLETKLRQQYEIELKKLPKVYKRSIVRNYKPLINRLKHYNGYDINYISKIGEKIDSNKPIFLFAPELGAINLHALSMSLQSKNLGEINTALNTLLVTSADSNLKISLVKYPELLDSLAILGMNLLSNLSQNVVPYHRNTSDYYYEDAGSNQYYVTQHDKMVDKIFEKVNNNATLTPNDSNDEKVTILVDSLTGNQLPTPTPTEMEPDLDTECFISMQSTSPAVKQWDLLPEPIRFLPNQFPLKIHRTPYLTSLKKIKDEIDDPFTKINTRGAEDPKVLINDQLSTISMILRNISFSDNNSRIMSRNFYLKRFISDLLWLVLIHPENFTCNRKILNFKKDLVIVLSNISHLLEIASSIDCLLILILVISFGQPKLNPMASSSSFGSESLTFNEFQLQWGKYQTFGVDILAKLFSLEKPNLNYFKSILLNKNTGNNLYDRNSNNNHKDKKLLRRLLNLYNDNNKNNNNRHNLLNDVVSFLFSAIPLQQVLSQSADPSLLIDQFSPVISQSLTSILVIVQKILPLSNEVFEISENNSDSNSNNNGNKDSSFNFNKNLPFVWLSSEENIGSGLLKLSEIILNINNSTSKNTLLQQQNYSKVLLPSINISCVQLIKCLVEKSICFENCLNNDPEILKKIASIPNLFPTDLEIFQLFTNPSVDIQIINQYQLLYNLKNDILTNLE
Turning to B1, in the experiment with Snf5 (S. cerevisiae), the binding entry is “binds”.

B2: Rtt102 (protein, UniProt P53330 1-157)
chain: MDPQTLITKANKVSYYGNPTSKESWRYDWYQPSKVSSNVQQPQQQLGDMENNLEKYPFRYKTWLRNQEDEKNLQRESCEDILDLKEFDRRILKKSLMTSHTKGDTSKATGAPSANQGDEALSVDDIRGAVGNSEAIPGLSAGVNNDNTKESKDVKMN
On to B2, for which the binding result with Snf2 (S. cerevisiae) [3] is “binds”.
